The text below walks through data of PubChem BioAssay AID2685 (National Center for Advancing Translational Sciences (NCATS), 2010).

The other results are listed elsewhere or left out. Further columns of the screen follow, without active or inactive calls. Compounds called inactive in the main read-out are mostly missing here. Words in brackets tell the shape of the fitted curve; partial curves, single points and poor fits give uncertain potencies.

The nature of this assay: qHTS Assay for Lipid Storage Modulators in Drosophila S3 Cells.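 As to cell number change: cells counted by Cell Tracker Red CMTPX staining in the red channel.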 As to conditions: BODIPY lipid droplet fluorescence, 18-24 h; for cell number change: measured here: cell count max response, cells fed with added oleic acid. A digest of the protocol:
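Drosophila S3 cells loaded with oleic acid (400 uM, as added) and compounds at several concentrations; lipid droplets imaged by 488-nm laser-scanning cytometry, 500–530 nm intensity and object ratio to cell channel. Percent activity normalized to 20 uM Triacsin C.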

Setting [1] is: measured here: cell number channel AC50, cells fed with added oleic acid.
Setting [2] is: measured here: lipid fluorescence (Fed channel) AC50, cells fed with added oleic acid.

A word on the AC50: it is the midpoint of the concentration-response curve, whichever way the signal moves. A low value points to activity at low concentration.

Regarding `CCn1c(SCC(=O)Nc2ccccc2N2CCOCC2)nnc1-c1ccccc1O`, the cell number change is 118%. The AC50 under setting [1] is 13 µM [rising, partial curve]. Further, the half-maximal activity concentration (AC50) under setting [2] was 18.4 µM [rising, partial curve].
As for `CCOC(=O)CC1C(=O)NCCN1Cc1cccc(C(F)(F)F)c1` (configuration not stated), the cell number change was -6.39%. The AC50 under setting [2] was 2.91 µM [rising, single point].
On to `CC(Oc1ccc(F)cc1)C(=O)NN` (configuration not stated), for which the cell number change was 2.09%. Under setting [2], the AC50 is 29.1 µM [rising, single point].
`O=S(=O)(NCC1CCCO1)c1cccc(S(=O)(=O)N2CCCC2)c1` (configuration not stated): the cell number change turned out to be 4.43%.
Consider `Cc1cc(C)n(C(=O)CCCn2cc([N+](=O)[O-])cn2)n1`, for which the cell number change was -19.5%. Under setting [2], the AC50 is 2.59 µM [falling, single point].
Regarding `Cc1ccc(OC(C)C(=O)Nc2ccccc2C(=O)NCc2cccnc2)cc1C` (configuration not stated), the cell number change is -28.9%. Also, the concentration at half-maximal activity (AC50) under setting [2] is 10.3 µM [falling, partial curve].
Consider `Cc1ccc(NC(=S)NCc2ccccc2)cc1[N+](=O)[O-]`, for which the cell number change is -15%. The AC50 under setting [2] is 20.6 µM [falling, single point].
Consider `O=C(Nc1nnc(S(=O)(=O)N2CCOCC2)s1)c1cccc(F)c1`, for which the cell number change is -16.4%.
Consider `CN(C)c1ccc(-c2n[nH]c(=S)n2-c2ccccc2)cc1`, for which, under setting [1], the half-maximal activity concentration (AC50) was 2.31 µM [rising, partial curve].
For the compound `CC(C)CCN(CC(=O)NC1CCCC1)C(=O)C(=O)Nc1ccc2c(c1)OCCO2`, the cell number change was -0.833%. Also, the AC50 under setting [2] is 25.9 µM [rising, single point].
With `COc1ccc(Nc2nc(N)nc(COc3ccc(OC)cc3)n2)cc1`, the cell number change is -17.2%. For the same compound, under setting [2], the AC50 was 0.92 µM [falling, partial curve].
Turning to `Cn1c(SCc2nn[nH]n2)nc2c1c(=O)n(Cc1ccccc1Cl)c(=O)n2C`, the AC50 under setting [2] is 2.06 µM [falling, partial curve].
Turning to `O=C(CCCc1ccccc1)Nc1cccc([N+](=O)[O-])c1`, the cell number change was -12.3%. Moreover, the half-maximal activity concentration (AC50) under setting [2] was 0.206 µM [falling, full curve, poor fit].
As to `C=CCNC(=O)CSCc1ccc(Br)cc1`, the cell number change is -11.5%. Besides, the concentration at half-maximal activity (AC50) under setting [1] is 6.51 µM [falling, single point]. Under setting [2], the AC50 was 5.8 µM [falling, partial curve, poor fit].
Turning to `CC(=O)c1ccc(NC(=O)CC(NCCC2=CCCCC2)C(=O)O)cc1` (configuration not stated), the cell number change amounted to 25.6%. The AC50 under setting [2] was 18.4 µM [falling, partial curve, poor fit].
On to `Fc1ccc(-c2nnc3ccc(N4CCc5ccccc5C4)nn23)cc1`, for which the cell number change turned out to be 7.55%. For the same compound, under setting [1], the AC50 was 3.26 µM [rising, partial curve]. The AC50 under setting [2] is 0.651 µM [rising, full curve].
For `CCC1S/C(=N/N=C/c2ccco2)NC1=O` (configuration not stated), the cell number change came to 0.708%. For the same compound, the half-maximal activity concentration (AC50) under setting [2] was 25.9 µM [falling, partial curve, poor fit].
Take `Cc1ccc(S(=O)(=O)Oc2ccccc2N2C(=O)C3C4CCC(C4)C3C2=O)cc1` (configuration not stated): the cell number change came out at 5.65%. Also, under setting [2], the AC50 is 29.1 µM [falling, single point].
Turning to `CCOc1ccc(CC2S/C(=N/c3ccccn3)NC2=O)cc1` (configuration not stated), the cell number change was -24.2%.
For `O=C(O)c1nn(-c2ccccc2)c(-c2ccccc2)c1C(=O)c1ccccc1`, the AC50 under setting [1] is 0.731 µM [falling, single point].
`Cc1ccc(CN2C(=O)c3ccccc3C2C(=O)NCc2cccnc2)cc1` (configuration not stated): the cell number change turned out to be 19.8%. For the same compound, under setting [2], the concentration at half-maximal activity (AC50) is 20.6 µM [rising, single point].
Turning to `COc1ccc([C@@H]2CC=C(C(=O)O)[C@H](c3ccc(Cl)cc3)N2S(=O)(=O)c2ccc(C)cc2)cc1OC`, the cell number change was -5.14%. Further, the AC50 under setting [2] is 3.26 µM [falling, partial curve, poor fit].
Regarding `Cc1cc(C)n(S(=O)(=O)c2cc(C)c(C)cc2C)n1`, the AC50 under setting [1] is 0.0366 µM [rising, full curve, poor fit].
Regarding `COc1cc(SC)ccc1C(=O)Nc1ncc(Cl)cc1Cl`, the cell number change was found to be 13.3%.
For `O=C(CSc1nnc(-c2ccccc2O)o1)N1CCc2ccccc2C1`, the cell number change was 10.8%.
With `Cc1c(Cl)cccc1NC(=O)CCC(=O)NNC(=O)c1ccco1`, the cell number change is -20.5%. The AC50 under setting [2] was 32.6 µM [falling, single point].
As to `CC1(CCc2ccc(O)cc2)NC(=O)NC1=O` (configuration not stated), the cell number change amounted to 42.6%. Besides, under setting [1], the AC50 was 29.1 µM [rising, single point]. Moreover, the concentration at half-maximal activity (AC50) under setting [2] was 0.731 µM [falling, full curve].
Regarding `CC1CCCCC1NC(=O)C(Cc1ccccc1)NS(=O)(=O)c1cccs1` (configuration not stated), the cell number change is -107%. Also, under setting [1], the concentration at half-maximal activity (AC50) is 18.4 µM [falling, single point]. Also, under setting [2], the AC50 was 1.16 µM [rising, full curve].
As for `N#Cc1ccc2c(c1)C[C@]1(c3ccsc3)Oc3c(c(=O)oc4ccc(F)cc34)C2O1`, the cell number change is -1.45%. Under setting [2], the AC50 was 0.0841 µM [rising, full curve].
As to `O=C1CSC(c2ccccc2)N1c1ccccc1F` (configuration not stated), the cell number change was 14.3%.
`Cc1ccnc(NC(=O)c2ccc(Cl)c(S(=O)(=O)N3CCCCC3)c2)c1`: the cell number change was -11.1%. For the same compound, under setting [2], the concentration at half-maximal activity (AC50) is 11.6 µM [falling, partial curve].
As for `C=CCn1c(=O)c2ccccc2n2c(SCC(=O)/C(C#N)=C(\C)N)nnc12`, the cell number change was -21.2%. In addition, the half-maximal activity concentration (AC50) under setting [2] was 20.6 µM [falling, single point].
With `CCOC(=O)/C=c1\s/c(=C\c2ccc3cc(OC)ccc3c2)c(=O)n1CC(=O)NCc1ccc2c(c1)OCO2`, under setting [2], the concentration at half-maximal activity (AC50) was 23.1 µM [rising, partial curve].
As to `COC(=O)[C@@H](NC(=O)c1ccccc1)[C@@H](C)O`, the cell number change stood at 14.4%.
On the same count and under the same terms, the value for `Cc1cccc(-c2ocnc2C(=O)Nc2ccccc2C(=O)N2CCCC2)c1` was 1.67%.
Turning to `Oc1ccc(-c2nc3ncccn3c2Nc2ccc3c(c2)OCCO3)cc1`, the cell number change turned out to be 62.6%. The AC50 under setting [1] was 29.1 µM [rising, single point]. Under setting [2], the AC50 was 20.6 µM [rising, partial curve].
For `COc1ccc(C(=O)COC(=O)CCN2C(=O)C3C4C=CC(C5CC45)C3C2=O)cc1` (configuration not stated), the cell number change was 2.64%. Also, under setting [2], the concentration at half-maximal activity (AC50) is 6.51 µM [falling, full curve].
Consider `CC(C)(C)OC(=O)NCCCC[C@@H](C(=O)NCCCCCCCCCCC(=O)N1CCN(C(=O)OC(C)(C)C)CC1)n1cc(CCO)nn1`, for which the cell number change was -33.6%. The concentration at half-maximal activity (AC50) under setting [1] was 18.4 µM [falling, single point]. The AC50 under setting [2] is 6.51 µM [rising, single point].
With `CCCCCC[N+](C)(C)CC/C=C1/c2ccccc2Sc2ccc(Cl)cc21`, the cell number change is -70.5%. In addition, under setting [1], the concentration at half-maximal activity (AC50) is 25.9 µM [falling, partial curve]. In addition, the AC50 under setting [2] was 32.6 µM [falling, partial curve].
Consider `COc1ccc(NC(=O)CC2C(=O)N(C)C(=S)N2Cc2ccco2)cc1` (configuration not stated), for which the cell number change is -15.6%.
Consider `Cc1ccc(NC(=O)c2sc3ncn(CC(=O)N4CCN(c5ccccn5)CC4)c(=O)c3c2C)cc1F`, for which the cell number change was -19.2%.
Consider `Cc1ccc2oc(-c3ccccc3)c(C(=O)O)c(=O)c2c1`, for which the cell number change is -9.38%. Also, under setting [2], the AC50 was 7.31 µM [falling, single point].
Take `CCn1c(SCC(=O)NCc2ccc3c(c2)OCO3)nnc1-c1ccncc1`: the cell number change was -15.7%. Further, the AC50 under setting [2] is 0.92 µM [falling, full curve, poor fit].
For `O=C(CSc1ncnc2c1cnn2-c1ccccc1)NC1CCCC1`, under setting [1], the half-maximal activity concentration (AC50) is 4.61 µM [rising, single point].
`O=C1CCc2cc(S(=O)(=O)NCc3ccc(F)cc3)cc3c2N1CC3`: under setting [1], the AC50 was 1.03 µM [falling, single point].
As for `O=C(NC1(C(=O)NC2CCCC2)CCCCC1)c1ccc2c(c1)OCO2`, the cell number change stood at 11.5%. Moreover, the half-maximal activity concentration (AC50) under setting [1] is 0.00517 µM [rising, full curve, poor fit].
`CSc1ccc(S(=O)(=O)NCc2ccc(Cl)cc2)cc1`: under setting [2], the AC50 is 0.58 µM [falling, single point].
For `COc1ccc(C2C3=C(CC(C)(C)CC3=O)N(C)C3=C2C(=O)CC(C)(C)C3)cc1OC`, the cell number change was -23.5%.
As to `CC1CN(C2CCN(C(=O)c3ccccc3)CC2)CC(C)O1` (configuration not stated), the cell number change was -30%. Also, under setting [1], the AC50 was 0.0259 µM [falling, full curve, poor fit]. Also, under setting [2], the half-maximal activity concentration (AC50) was 3.26 µM [falling, full curve].
Consider `O=C(N/C(=C\c1ccco1)C(=O)N1CCC(O)CC1)c1ccccc1`, for which the cell number change stood at 5.26%.
With `Cc1ccc(C(=O)COC(=O)c2ccc(O)cc2)cc1`, the cell number change was 9.77%. In addition, the AC50 under setting [1] was 2.91 µM [rising, partial curve, poor fit]. Further, under setting [2], the AC50 is 5.17 µM [rising, single point].
Consider `CCN(CC)c1ccc2cc(C(=O)Nc3cccnc3N3CCOCC3)c(=O)oc2c1`, for which the cell number change worked out at 5.26%.
As for `CCS(=O)(=O)N1CCN(C2CCC(c3ccccc3)CC2)CC1` (configuration not stated), the cell number change was 35%. Also, the half-maximal activity concentration (AC50) under setting [1] was 29.1 µM [rising, single point]. Under setting [2], the AC50 is 6.51 µM [falling, single point].
For `O=C(N/N=C/c1ccc2c(c1)OCO2)c1cccc(NC(=O)c2ccccc2Cl)c1`, the cell number change stood at 17.5%.
For `O=C(CCCCCNC(=O)c1ccccc1Cl)N/N=C/c1ccco1`, the AC50 under setting [1] is 6.51 µM [rising, partial curve, poor fit].
Regarding `CC(=O)N1CCCc2ccc(NS(=O)(=O)c3ccc(C)c(C)c3)cc21`, the cell number change is -12.8%.
In the case of `CCOc1ccc(/C(O)=C2/C(=O)C(=O)N(c3ncccn3)C2c2ccc(C)cc2)cc1` (configuration not stated), the cell number change was -19.5%. For the same compound, under setting [2], the AC50 was 0.461 µM [falling, full curve].
For `COc1ccc(Cl)cc1NC(=O)CN(C)C(=O)c1ccc2c(c1)OCCO2`, the cell number change turned out to be 128%. Besides, under setting [1], the AC50 is 8.2 µM [rising, partial curve].
Regarding `CCN(CC(=O)Nc1ccc(Br)cc1)CC(=O)Nc1cc(C)on1`, the cell number change was -25%. In addition, under setting [1], the AC50 is 4.11 µM [falling, single point].
In the case of `Cn1nc(C(=O)N2CCN(c3cccc(Cl)c3)CC2)c2c1-c1ccccc1S(=O)(=O)C2`, the cell number change is -8.73%. The AC50 under setting [2] was 0.092 µM [rising, full curve, poor fit].
As to `CCOc1ccc2[nH]c3nc(SCC(=O)NC4CCCC4)nnc3c2c1`, the cell number change was -5.65%.
In the case of `Cn1c(=O)c2c(nc(NCc3ccc4c(c3)OCO4)n2C)n(C)c1=O`, the cell number change was found to be 14.3%. Besides, under setting [2], the half-maximal activity concentration (AC50) was 3.26 µM [rising, single point].
As for `COc1ccc(S(=O)(=O)N2CCC(C(=O)N(CC(C)C)C3CCS(=O)(=O)C3)CC2)cc1OC` (configuration not stated), the cell number change is -18.4%. For the same compound, the half-maximal activity concentration (AC50) under setting [2] is 0.103 µM [falling, full curve, poor fit].
